Protein sequences, listed by entry. Tags and fused reporters are not part of them. Lines headed by an entry give the natural chain unless they say otherwise; changes in a name come on top.
UniProt P18054: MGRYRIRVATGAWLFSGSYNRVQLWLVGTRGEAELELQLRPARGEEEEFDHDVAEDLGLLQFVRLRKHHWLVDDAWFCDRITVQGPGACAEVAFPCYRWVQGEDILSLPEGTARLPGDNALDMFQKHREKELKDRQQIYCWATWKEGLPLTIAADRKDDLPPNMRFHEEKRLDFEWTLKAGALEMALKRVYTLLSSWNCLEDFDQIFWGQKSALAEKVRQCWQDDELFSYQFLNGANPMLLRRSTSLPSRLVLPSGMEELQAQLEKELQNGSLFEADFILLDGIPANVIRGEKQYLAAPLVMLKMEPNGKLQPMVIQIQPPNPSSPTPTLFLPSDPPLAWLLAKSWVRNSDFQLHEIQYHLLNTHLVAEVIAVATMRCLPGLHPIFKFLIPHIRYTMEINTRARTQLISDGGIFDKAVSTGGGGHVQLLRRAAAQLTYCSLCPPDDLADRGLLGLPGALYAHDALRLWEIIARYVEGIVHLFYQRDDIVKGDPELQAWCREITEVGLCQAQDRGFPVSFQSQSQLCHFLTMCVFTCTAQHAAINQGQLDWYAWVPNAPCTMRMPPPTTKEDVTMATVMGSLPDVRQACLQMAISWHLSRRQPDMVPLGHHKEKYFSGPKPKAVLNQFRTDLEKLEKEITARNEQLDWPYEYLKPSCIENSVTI

Out of some 580,000 compounds screened, about 6,100 (1.1%) were called active. The inconclusive results got no clear call from the source; some entries with a clear call stand among them for comparison. The call rests on the fitted dose curve; in most records, active means well fitted inhibition curve with a large enough effect; inconclusive means small, poorly fitted or top-dose-only effect, or another doubt; inactive means no such curve, though single readings can be large or run the other way. Where the call is inconclusive, the potency comes from a doubtful curve fit.
What follows are compounds tested against Polyunsaturated fatty acid lipoxygenase ALOX12 (Homo sapiens) (UniProt P18054) (assay: Primary qHTS assay for inhibitors of human arachidonate 12S-lipoxygenase (ALOX12): Round 2). Conditions: purified 12hLO, xylenol orange hydroperoxide absorbance; activity change, negative = inhibition: at 108 µM (top of the series) unless noted.
Summary of the method: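 Hydroperoxide product was detected by ferrous iron/xylenol orange as the 573 to 405 nm absorbance ratio. Arachidonic acid at 40 uM (final) was turned over for 30 min at room temperature by 150 nM human 12hLO, pH 7.0 Hepes buffer, after 15 min compound preincubation.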
With `O=C(Cc1ccccc1)N1CCC2(CC1)CN(c1ncccn1)CC2CO` (stereo not drawn) the “activity change, negative = inhibition” value was inactive: -6.4%.
For `CCOc1ccc(NC(=O)CSc2nc3c([nH]c4ccccc43)c(=O)n2-c2cc(C)cc(C)c2)cc1`, the Potency was inconclusive: 89.1 µM [inhibitor, partial curve, poor fit].
In the case of `O=C(c1ccccc1F)N1CCN(Cc2cccc(Cl)c2)CC1`, the Potency is reported as inconclusive: 2.24 µM [inhibitor, full curve, poor fit].
With `O=C(COc1cccc(Cl)c1)N1CCC(c2nc3ccccc3o2)CC1` the Potency was inconclusive: 126 µM [inhibitor, partial curve, poor fit].
With `Cc1cccc2c(C(=O)O)cc(-c3ccccc3)nc12` the Potency was inconclusive: 79.4 µM [inhibitor, partial curve, poor fit].
With `NC(=O)c1c(NC(=O)C2CCCO2)sc2c1CCCCC2` (stereo not drawn) the Potency was inconclusive: 63.1 µM [inhibitor, partial curve, poor fit].
`COc1ccc(-c2noc([C@@H]3CCCN3Cc3ccccc3OC)n2)cn1` was tested, and the Potency was inconclusive: 63.1 µM [inhibitor, partial curve, poor fit].
`CCOc1ccccc1CN1CCC2(CCN(C(=O)OC)CC2)Oc2ccccc21` was tested, and the Potency was inconclusive: 44.7 µM [inhibitor, partial curve].
For `COc1ccc2cc[nH]c2c1`, the “activity change, negative = inhibition” value was inactive: -10.7%.
`CCCCCSc1nc2c(c(=O)[nH]c(=O)n2C)n1Cc1ccc(Cl)cc1` was tested, and the “activity change, negative = inhibition” value was inactive: 13.1%.
With `Cc1cc(/C=N/NC(N)=S)c(C)n1-c1ccc(Cl)cc1` the Potency was inconclusive: 39.8 µM [inhibitor, partial curve, poor fit].
With `Cc1ccc([N+](=O)[O-])cc1NC(=S)NC(=O)c1c(Cl)cnn1C` the “activity change, negative = inhibition” value was inactive: 16.3%.
For `O=C(C1=C(O)C(=O)N(CC2CCCO2)C1c1ccccc1[N+](=O)[O-])c1ccco1` (stereo not drawn), the Potency was inconclusive: 7.08 µM [inhibitor, full curve, poor fit].
In the case of `CCN(Cc1ccccc1)c1cc2c(c3c1ccn3C)C1CCC2C1` (stereo not drawn), the Potency is reported as inconclusive: 1.41 µM [inhibitor, partial curve, poor fit].
For `CCC1CCc2c(sc(NC(=O)COCC(=O)O)c2C(=O)NCc2ccc(C)cc2)C1` (stereo not drawn), the Potency was inconclusive: 79.4 µM [inhibitor, partial curve, poor fit].
With `COc1ccc(NC(=O)CN(C)CC(=O)N(C)C2(C#N)CCC(C)CC2)cc1` (stereo not drawn) the Potency was inconclusive: 50.1 µM [inhibitor, partial curve, poor fit].
In the case of `CCOC(=O)Nc1ccc2c(c1)N(C(=O)CCN1CCN(CCO)CC1)c1ccccc1S2`, the “activity change, negative = inhibition” value is reported as inactive: 14.9%.
With `O=C(NCc1cccnc1)C1CCN(c2ccc(S(=O)(=O)N3CCOCC3)cc2Cl)CC1` the “activity change, negative = inhibition” value was inactive: -1.02%.

— PubChem BioAssay AID1671190 (National Center for Advancing Translational Sciences (NCATS), 2021)
On the % scale 0 is the no-effect control and ±100 the full control effect; potency means the concentration at half of the fitted maximal effect.
